Here are results for one substance from PMC8458385.

Chains of the proteins cited; added tags and fusions are not shown. Lines headed by an entry give the natural chain unless they say otherwise; changes in a name come on top.
UniProt O76616: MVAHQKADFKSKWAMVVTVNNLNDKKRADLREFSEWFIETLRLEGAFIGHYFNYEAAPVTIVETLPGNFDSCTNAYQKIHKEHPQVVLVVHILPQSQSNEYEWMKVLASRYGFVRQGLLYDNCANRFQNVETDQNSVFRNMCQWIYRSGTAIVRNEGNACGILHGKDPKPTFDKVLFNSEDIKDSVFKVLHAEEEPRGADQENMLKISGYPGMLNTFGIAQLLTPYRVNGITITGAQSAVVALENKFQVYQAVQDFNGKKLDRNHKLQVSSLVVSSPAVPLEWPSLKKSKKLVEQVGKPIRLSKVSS

These are yes or no findings as the source states them, for the method shown.

This assay addresses T1, ERH-2 (C. elegans) (UniProt Q20057).
T1 sequence: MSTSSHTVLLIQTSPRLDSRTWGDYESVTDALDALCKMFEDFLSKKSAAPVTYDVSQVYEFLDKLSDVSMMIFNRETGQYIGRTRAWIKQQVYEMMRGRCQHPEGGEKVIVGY
As to the kind of experiment: SEC; ERH-2 and TOFU-6^RRM mixed with PICS-1 5-282, PICS-1 5-200 or PICS-1 ΔEBM; Superose 6 Increase 10/300 GL; 20 mM Tris pH 8.5, 200 mM NaCl; peaks analysed by SDS-PAGE; both purified. A general note: In gel filtration, larger molecules generally elute earlier.

As to “PICS-1^5-282 with EBM deleted (PICS-1^ΔEBM) (from UniProt O76616) (domain or fragment)”, the binding entry was “no binding”.
